Results are given in words; binding and its absence hold for the method and conditions named. Binding seen in cells or lysates may run through a third protein. Some results given as binding are weak or reduced against the parent protein; the word gives no strength.
Biological target: FcγRI-GFP (human high affinity IgG receptor FcγRI fused to EGFP) (human) (UniProt P12314)
Test: co-IP

Chains of the proteins cited; added tags and fusions are not shown. Residues count along the entry.
UniProt P12314, residues 16-374: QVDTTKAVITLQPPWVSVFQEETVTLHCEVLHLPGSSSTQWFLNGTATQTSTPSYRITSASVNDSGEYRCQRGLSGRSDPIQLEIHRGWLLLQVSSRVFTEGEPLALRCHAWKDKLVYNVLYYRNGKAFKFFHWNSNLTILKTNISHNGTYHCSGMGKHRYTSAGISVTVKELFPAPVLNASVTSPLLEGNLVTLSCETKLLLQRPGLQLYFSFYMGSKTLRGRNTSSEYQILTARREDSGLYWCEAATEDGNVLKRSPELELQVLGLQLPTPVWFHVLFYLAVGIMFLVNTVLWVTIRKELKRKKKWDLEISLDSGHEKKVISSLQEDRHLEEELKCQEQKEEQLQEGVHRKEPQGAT

B1: Insulin Responsive AminoPeptidase (IRAP) (protein, UniProt Q8C129 1-1025)
chain: MESFTNDRLQLPRNMIENSMFEEEPDVVDLAKEPCLHPLEPDEVEYEPRGSRLLVRGLGEHEMDEDEEDYESSAKLLGMSFMNRSSGLRNSAAGYRQSPDGTCSLPSARTLVICVFVIVVAVSVIMVIYLLPRCTFTKEGCHKTNQSAELIQPVATNGKVFPWAQIRLPTAIIPLCYELSLHPNLTSMTFRGSVTISLQALQDTRDIILHSTGHNISRVTFMSAVSSQEKQVEILEYPYHEQIAVVAPEPLLTGHNYTLKIEYSANISNSYYGFYGITYTDKSNEKKYFAATQFEPLAARSAFPCFDEPAFKATFIIKITRNEHHTALSNMPKKSSVPAEEGLIQDEFSESVKMSTYLVAFIVGEMRNLSQDVNGTLVSVYAVPEKIGQVHHALDTTIKLLEFYQTYFEIQYPLKKLDLVAIPDFEAGAMENWGLLTFREETLLYDNATSSVADRKLVTKIIAHELAHQWFGNLVTMQWWNDLWLNEGFATFMEYFSVEKIFKELNSYEDFLDARFKTMRKDSLNSSHPISSSVQSSEQIEEMFDSLSYFKGASLLLMLKSYLSEDVFRHAVILYLHNHSYAAIQSDDLWDSFNEVTDKTLDVKKMMKTWTLQKGFPLVTVQRKGTELLLQQERFFLRMQPESQPSDTSHLWHIPISYVTDGRNYSEYRSVSLLDKKSDVINLTEQVQWVKVNSNMTGYYIVHYAHDDWTALINQLKRNPYVLSDKDRANLINNIFELAGLGKVPLRMAFDLIDYLKNETHTAPITEALFQTNLIYNLLEKLGHMDLSSRLVARVHKLLQNQIQQQTWTDEGTPSMRELRSALLEFACAHSLENCTTMATNLFDSWMASNGTQSLPTDVMVTVFKVGARTEKGWLFLFSMYSSMGSEAEKNKILEALASSEDVHKLYWLMKSSLDGDIIRTQKLSLIIRTVGRHFPGHLLAWDFVKENWNKLVHKFHLGSYTIQSIVAGSTHLFSTKTHLSEVQAFFENQSEATLKLRCVQEALEVIQLNIQWMVRNLKTLSQWL
binding: binds
